# From article PMC6057933
# Sequences of proteins named here, by UniProt entry; tags and fusion partners are left off. A change or cut given only in a name is not applied to a line headed by its entry.
# UniProt Q6GPH4: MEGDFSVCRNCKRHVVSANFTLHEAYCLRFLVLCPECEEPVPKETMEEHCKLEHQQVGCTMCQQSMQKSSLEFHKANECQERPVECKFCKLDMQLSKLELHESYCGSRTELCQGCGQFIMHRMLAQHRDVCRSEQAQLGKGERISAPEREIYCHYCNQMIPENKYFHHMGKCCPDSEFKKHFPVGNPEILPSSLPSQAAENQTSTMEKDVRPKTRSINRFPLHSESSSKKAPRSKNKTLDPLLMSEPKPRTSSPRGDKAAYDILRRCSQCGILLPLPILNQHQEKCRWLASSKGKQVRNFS
# These are yes or no findings as the source states them, for the method shown.
# Target: T1, IRF-1 in the cells of the transfection experiments (human) (UniProt P10914)
# T1 sequence: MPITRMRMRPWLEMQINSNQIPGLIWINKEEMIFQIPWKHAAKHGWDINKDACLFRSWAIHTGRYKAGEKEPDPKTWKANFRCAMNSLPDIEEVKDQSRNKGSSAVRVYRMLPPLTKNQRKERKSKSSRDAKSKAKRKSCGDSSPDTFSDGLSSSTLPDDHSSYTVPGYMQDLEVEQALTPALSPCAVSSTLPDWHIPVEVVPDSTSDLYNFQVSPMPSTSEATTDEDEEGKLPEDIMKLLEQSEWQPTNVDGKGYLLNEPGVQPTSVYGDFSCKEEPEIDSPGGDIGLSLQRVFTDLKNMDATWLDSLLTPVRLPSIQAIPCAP
# Assay: sequential ChIP; cell lysates precipitated with anti-IRF-1 antibody, the resulting complexes precipitated with anti-XAF1 antibody; PCR of the IRFE region of the PUMA promoter
substance,measurement,value
ΔZF6-XAF1 (from UniProt Q6GPH4),binding,no binding
